{"source": "paper PMC13191460", "binders": {"B1": {"name": "RAD51B (endogenous) (protein, UniProt O15315 1-384)", "chain": "MGSKKLKRVGLSQELCDRLSRHQILTCQDFLCLSPLELMKVTGLSYRGVHELLCMVSRACAPKMQTAYGIKAQRSADFSPAFLSTTLSALDEALHGGVACGSLTEITGPPGCGKTQFCIMMSILATLPTNMGGLEGAVVYIDTESAFSAERLVEIAESRFPRYFNTEEKLLLTSSKVHLYRELTCDEVLQRIESLEEEIISKGIKLVILDSVASVVRKEFDAQLQGNLKERNKFLAREASSLKYLAEEFSIPVILTNQITTHLSGALASQADLVSPADDLSLSEGTSGSSCVIAALGNTWSHSVNTRLILQYLDSERRQILIAKSPLAPFTSFVYTIKEEGLVLQETTFCSVTQAELNWAPEILPPQPPEQLGLQMCHHTQLIF"}}, "biological_target": "SFB-DDX11 (from pIRES2-SFB-DDX11) (human) (UniProt Q96FC9)", "assay": "affinity purification with mass spectrometry; tandem affinity purification of SFB-DDX11 from transfected NOZ cells (72 h), NETN lysis buffer; Flag M2 beads, elution with Flag peptide, then S protein agarose; SDS-PAGE, silver stain, bands excised for LC-MS/MS; SFB-vector as control", "note": "Results are given in words; binding and its absence hold for the method and conditions named. In cells and extracts the contact can be indirect. Here binding means that the protein was enriched with, or labelled near, the bait; the list need not be complete."}
{"binder": "B1", "values": [{"measurement": "binding", "result": "binds"}]}
